# Where “and” joins values, the source holds several entries; their conditions need not be identical. Identical values can stand only once. The shares of active, inactive and inconclusive entries below differ from those in the screen. For part of these data: Potencies of inconclusive entries are doubtful fits and often do not repeat. Where a structure was tested more than once in an assay, its records may differ in their call. Calls of active or inactive are those of the source. The calls were made as follows: active = hit-call score of the fitted dose curve at least 0.9, where 1 is the maximum; inconclusive = response in the unintended direction; inactive = score below 0.9.
# Chains of the proteins cited; added tags and fusions are not shown.
# UniProt P04637, whole entry, looked up: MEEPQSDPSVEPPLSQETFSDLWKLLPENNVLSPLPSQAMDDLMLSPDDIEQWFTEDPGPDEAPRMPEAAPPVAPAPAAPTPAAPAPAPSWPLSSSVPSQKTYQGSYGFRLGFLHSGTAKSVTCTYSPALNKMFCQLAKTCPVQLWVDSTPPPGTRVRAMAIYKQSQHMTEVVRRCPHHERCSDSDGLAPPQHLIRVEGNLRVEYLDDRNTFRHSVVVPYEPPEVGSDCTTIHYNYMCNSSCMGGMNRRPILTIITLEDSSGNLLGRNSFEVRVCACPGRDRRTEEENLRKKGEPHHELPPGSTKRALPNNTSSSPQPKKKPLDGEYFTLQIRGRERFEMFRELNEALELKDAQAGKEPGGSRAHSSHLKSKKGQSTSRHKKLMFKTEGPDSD
# Experiments:
# [1] = TOX21_p53_BLA_p4_viability: Viability Assessment in the Tox21 HCT-116 p53 Agonism Beta-lactamase Assay, Phase 4 (AID 2283597);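 also: hits lower the luminescence signal meaning cytotoxicity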
# How it was run: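 Viability is taken as cellular ATP: after 16 h compound exposure of HCT116 cells and a 2 h room-temperature CCF4-AM substrate step, CellTiter-Glo reagent is added and luminescence is measured 30 min later.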
# [2] = target: Cellular tumor antigen p53 (Homo sapiens) (UniProt P04637); assay: TOX21_p53_BLA_p5_ratio: Tox21 HCT-116 p53 Agonism Beta-lactamase Assay, Ratio, Phase 5 (AID 2283599)
# How it was run: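 HCT-116 p53-bla cells (4000/well) plated 5 h, dosed with compound (217-fold DMSO dilution) for 16 h at 37 C; CCF4-AM substrate 2 h at room temperature. Activity is the 460/530 nm emission ratio (405 nm excitation), fitted in gain-of-signal direction versus DMSO.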
# [3] = target: Cellular tumor antigen p53 (Homo sapiens) (UniProt P04637); assay: TOX21_p53_BLA_p4_ratio: Tox21 HCT-116 p53 Agonism Beta-lactamase Assay, Ratio, Phase 4 (AID 2283601)
# How it was run: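 HCT-116 p53 beta-lactamase reporter cells (4000/well) preincubated 5 h, then compound (217-fold dilution of DMSO stock) for 16 h at 37C. CCF4-AM substrate added 2 h at room temperature; 460/530 nm emission ratio fitted upward versus DMSO.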
# [4] = TOX21_p53_BLA_p5_viability: Viability Assessment in the Tox21 HCT-116 p53 Agonism Beta-lactamase Assay, Phase 5 (AID 2283600)
# How it was run: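 Viability is taken from cellular ATP content, measured by luciferase luminescence in the same wells after the beta-lactamase ratio read. Cells are seeded at 4000 per well and exposed to DMSO-dissolved compounds, diluted 217-fold, for 16 h.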
# [5] = Tanguay_ZF_120hpf_EYE_legacy: (Legacy) Oregon State University Tanguay Lab 120 Hour Post-fertilization zebrafish Assay for Eye Malformation (AID 2283636);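 also: binary presence or absence of eye malformation scored by brightfield in 120 hpf larvae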
# How it was run: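 5D wild-type embryos, pronase-dechorionated at 4 hpf; static exposure 6–120 hpf, 28C, dark; DMSO 0.64% final; 5uM trimethyltin chloride positive control. Binary eye-defect scoring at 120 hpf; dead embryos not scored.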
# [6] = Tanguay_ZF_120hpf_AXIS_legacy: (Legacy) Oregon State University Tanguay Lab 120 Hour Post-fertilization zebrafish Assay for Body Axis Malformation (AID 2283635);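 as to AC50: potency for an increased fraction of larvae scored with body axis malformation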
# How it was run: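 Static 6–120 hpf chemical exposure of dechorionated wild-type 5D zebrafish, one per well at 28C; morphology endpoint scored binary at 120 hpf relative to DMSO control.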
smiles,measurement,setting,value
CCCCN(CCO)CCO,AC50,[1],inconclusive: 9.13 µM
same,AC50,[2],inconclusive: 46 µM
same,AC50,[3],inconclusive: 46 µM
Cc1cc(=O)n(-c2ccccc2)n1C,AC50,[1],inconclusive: 47.1 µM
same,outcome,[2],inactive
same,AC50,[3],inconclusive: 47.1 µM
CCCc1c(OCCCCc2nn[nH]n2)ccc(C(C)=O)c1O,outcome,[1],inactive
same,AC50,[2],active: 26.6 µM
same,AC50,[3],active: 25.2 µM
CC(=O)O[C@@H]1CC2CCC1(C)C2(C)C (stereo partly specified),AC50,[1],inconclusive: 46.1 µM and inconclusive: 23 µM
same,AC50,[4],inconclusive: 23 µM
CN(C)c1ccc(C(c2ccccc2)c2ccc(N(C)C)cc2)cc1,outcome,[1],inactive
same,outcome,[4],inactive
COC(=O)CC(C(C)=O)C(=O)OC (stereo unspecified),AC50,[1],inconclusive: 14 µM
same,outcome,[4],inactive
OCC1CCC(CO)CC1 (stereo unspecified),outcome,[1],inactive
same,outcome,[4],inactive
CC/C=C\CCOC(=O)CC,AC50,[1],inconclusive: 0.209 µM
same,AC50,[4],inconclusive: 81.7 µM
Cc1ccc2oc(CN(Cc3ccccc3)C(=O)Nc3c(F)cc(F)cc3F)c(-c3ccc(Cl)cc3)c2c1,outcome,[1],inactive
same,outcome,[2],inactive
same,outcome,[5],inactive
CCC(C)OC(=O)N1CCCCC1CCO (stereo unspecified),outcome,[1],inactive
same,AC50,[2],inconclusive: 46.1 µM
same,AC50,[6],inconclusive: 11.1 µM
C=CC(=O)OCCCCCCCCCC,AC50,[1],inconclusive: 46.1 µM
same,outcome,[4],inactive
COCCOCCOCCOCCOCCO,AC50,[1],inconclusive: 81.6 µM
same,AC50,[4],inconclusive: 46.1 µM
CCOC(=O)c1ccc(C)cc1,AC50,[1],inconclusive: 46.1 µM
same,AC50,[4],inconclusive: 46.1 µM
CS(=O)(=O)c1ccc([C@@H](C[C@H]2CCC(=O)C2)C(=O)Nc2cnccn2)cc1Cl,AC50,[1],inconclusive: 46.1 µM
same,AC50,[2],inconclusive: 46.1 µM
same,outcome,[5],inactive
NCc1ccccc1,outcome,[1],inactive
same,AC50,[4],inconclusive: 46.1 µM
Cc1ccccc1CCO,AC50,[1],inconclusive: 46.1 µM
same,AC50,[4],inconclusive: 46.1 µM
CCCc1ccc(N)cc1,outcome,[1],inactive
same,AC50,[4],inconclusive: 46.1 µM
CCCCCCOC(=O)CCC,outcome,[1],inactive
same,AC50,[4],inconclusive: 32.7 µM
OCCN(CCO)c1cccc(Cl)c1,AC50,[1],inconclusive: 87 µM
same,AC50,[4],inconclusive: 7.31 µM
CCCCCC1CCC(=O)O1 (stereo unspecified),AC50,[1],inconclusive: 46.1 µM
same,AC50,[4],inconclusive: 46.1 µM
CCC(=O)OCc1ccc(OC)cc1,outcome,[1],inactive
same,AC50,[4],inconclusive: 0.00301 µM
CCOC(=O)C1OC1c1ccccc1 (stereo unspecified),AC50,[1],inconclusive: 46.1 µM and inconclusive: 46.9 µM
same,AC50,[4],inconclusive: 46.9 µM
CCCCCC/C=C\CCCCCCCC(=O)O,AC50,[1],inconclusive: 46.1 µM
same,outcome,[4],inactive
O=c1[nH]c(=O)n([C@H]2CCCO2)cc1F,AC50,[1],inconclusive: 83 µM
same,AC50,[4],inconclusive: 23 µM
CC(C)COC(=O)CC(C(=O)OCC(C)C)S(=O)(=O)O (stereo unspecified),outcome,[1],inactive
same,AC50,[4],inconclusive: 1.65 µM
CCCN(C1CCN(C(=O)C2CCNCC2)CC1)[C@@H]1CCc2ccc(OC)cc2C1,AC50,[1],inconclusive: 46.1 µM
same,AC50,[2],inconclusive: 46.1 µM
same,outcome,[6],inactive
OCCCc1ccccc1,AC50,[1],inconclusive: 46.1 µM and inconclusive: 23 µM
same,AC50,[4],inconclusive: 46.1 µM and inconclusive: 23 µM
CCCCCCCCCCCCc1ccccc1,AC50,[1],inconclusive: 46.1 µM
same,AC50,[4],inconclusive: 1.69 µM and inconclusive: 11.2 µM
O=C(O)CCCC(=O)O,AC50,[1],inconclusive: 85.9 µM and inconclusive: 45.3 µM
same,AC50,[4],inconclusive: 81.9 µM
[Na+],AC50,[1],inconclusive: 46.1 µM
same,outcome,[4],inactive
c1ccc2ncccc2c1,AC50,[1],inconclusive: 3.04 µM
same,AC50,[4],inconclusive: 46.2 µM
O=c1c(O)c(-c2ccc(O)cc2)oc2cc(O)cc(O)c12,AC50,[1],inconclusive: 828 nM and inconclusive: 45.9 µM
same,AC50,[4],inconclusive: 5.99 µM and inconclusive: 14.1 µM
CC(C)CCCCCCCCCCCCCCC(=O)O,AC50,[1],inconclusive: 46.1 µM
same,AC50,[4],inconclusive: 46.1 µM
CC(=O)OC/C=C(/C)CCC=C(C)C,outcome,[1],inactive
same,outcome,[4],inactive
CCCCCCCCN1CCCC1=O,AC50,[1],inconclusive: 0.138 µM
same,outcome,[4],inactive
Cc1c(C(=O)c2c[nH]n(C)c2=O)ccc(S(C)(=O)=O)c1C1=NOCC1,AC50,[1],inconclusive: 33 µM
same,outcome,[4],inactive
C=CC(=O)OCCn1c(=O)n(CCOC(=O)C=C)c(=O)n(CCOC(=O)C=C)c1=O,AC50,[1],active: 15.4 µM
same,outcome,[4],inactive

# Source: PubChem BioAssay (EPA / NIEHS)
